# Measurements published in US20060257938A1, “Method of screening for drugs that block ligand binding to a lipid binding protein” (priority 2005, published 2006).
# B1: 18I 31V 73G 72A (protein, listed as Rattus norvegicus)
# chain: AFDGTWKVDRNENYEKFIEKMGINVVKRKLVAHDNLKLTITQEGNKFTVKESSNFRNIDVVFELGVDFAYSAGDGTELTGTWTMEGNKLVGKFKRVDNGKELIAVREISGNELIQTYTYEGVEAKRIFKKE
# modifications: PEPTIDE (1)...(131) wild-type rat intestinal fatty acid binding protein
# B2: 38Y 62W 117A 72A (protein, listed as Rattus norvegicus)
# chain: B1 chain with I18M, V31G, L38Y, F62W, G73A, Y117A
# modifications: PEPTIDE (1)...(131) wild-type rat intestinal fatty acid binding protein
# B3: 18V 31A 55W 73W 72A (protein, listed as Rattus norvegicus)
# chain: B1 chain with I18V, V31A, F55W, G73W
# modifications: PEPTIDE (1)...(131) wild-type rat intestinal fatty acid binding protein
# B4: 18I 31I 55M 73I 72A (protein, listed as Rattus norvegicus)
# chain: B1 chain with V31I, F55M, G73I
# modifications: PEPTIDE (1)...(131) wild-type rat intestinal fatty acid binding protein
# B5: 72I 73W 74N (protein, listed as Rattus norvegicus)
# chain: B1 chain with I18M, V31G, A72I, G73W, D74N
# modifications: PEPTIDE (1)...(131) wild-type rat intestinal fatty acid binding protein
# B6: 73F 72A (protein, listed as Rattus norvegicus)
# chain: B1 chain with I18M, V31G, G73F
# modifications: PEPTIDE (1)...(131) wild-type rat intestinal fatty acid binding protein
# B7: 18I 31L 55L 72A (protein, listed as Rattus norvegicus)
# chain: B1 chain with V31L, F55L, G73A
# modifications: PEPTIDE (1)...(131) wild-type rat intestinal fatty acid binding protein
# B8: 72S 73W 74G (protein, listed as Rattus norvegicus)
# chain: B1 chain with I18M, V31G, A72S, G73W, D74G
# modifications: PEPTIDE (1)...(131) wild-type rat intestinal fatty acid binding protein
# B9: 73T 72A 74F (protein, listed as Rattus norvegicus)
# chain: B1 chain with I18M, V31G, G73T, D74F
# modifications: PEPTIDE (1)...(131) wild-type rat intestinal fatty acid binding protein
# B10: 74T 72A 73F (protein, listed as Rattus norvegicus)
# chain: B1 chain with I18M, V31G, G73F, D74T
# modifications: PEPTIDE (1)...(131) wild-type rat intestinal fatty acid binding protein
# B11: 55V 73F 72A (protein, listed as Rattus norvegicus)
# chain: B1 chain with I18M, V31G, F55V, G73F
# modifications: PEPTIDE (1)...(131) wild-type rat intestinal fatty acid binding protein
# B12: 74E 72A 73F (protein, listed as Rattus norvegicus)
# chain: B1 chain with I18M, V31G, G73F, D74E
# modifications: PEPTIDE (1)...(131) wild-type rat intestinal fatty acid binding protein
# B13: 72S 73Q 74A (protein, listed as Rattus norvegicus)
# chain: B1 chain with I18M, V31G, A72S, G73Q, D74A
# modifications: PEPTIDE (1)...(131) wild-type rat intestinal fatty acid binding protein
# B14: 73P 72A 74F (protein, listed as Rattus norvegicus)
# chain: B1 chain with I18M, V31G, G73P, D74F
# modifications: PEPTIDE (1)...(131) wild-type rat intestinal fatty acid binding protein
# B15: 18V 31F 73M 72A (protein, listed as Rattus norvegicus)
# chain: B1 chain with I18V, V31F, G73M
# modifications: PEPTIDE (1)...(131) wild-type rat intestinal fatty acid binding protein
# B16: 74S 72A 73F (protein, listed as Rattus norvegicus)
# chain: B1 chain with I18M, V31G, G73F, D74S
# modifications: PEPTIDE (1)...(131) wild-type rat intestinal fatty acid binding protein
# B17: 38I 74F 72A (protein, listed as Rattus norvegicus)
# chain: B1 chain with I18M, V31G, L38I, G73A, D74F
# modifications: PEPTIDE (1)...(131) wild-type rat intestinal fatty acid binding protein
# B18: 72G 73F 74N (protein, listed as Rattus norvegicus)
# chain: B1 chain with I18M, V31G, A72G, G73F, D74N
# modifications: PEPTIDE (1)...(131) wild-type rat intestinal fatty acid binding protein
# B19: 18V 31F 55L 72A (protein, listed as Rattus norvegicus)
# chain: B1 chain with I18V, V31F, F55L, G73A
# modifications: PEPTIDE (1)...(131) wild-type rat intestinal fatty acid binding protein
# B20: 18I 31V 55V 73V 72A (protein, listed as Rattus norvegicus)
# chain: B1 chain with F55V, G73V
# modifications: PEPTIDE (1)...(131) wild-type rat intestinal fatty acid binding protein
# B21: 74Q 72A 73F (protein, listed as Rattus norvegicus)
# chain: B1 chain with I18M, V31G, G73F, D74Q
# modifications: PEPTIDE (1)...(131) wild-type rat intestinal fatty acid binding protein
# B22: 38Y 117A 72A (protein, listed as Rattus norvegicus)
# chain: B1 chain with I18M, V31G, L38Y, G73A, Y117A
# modifications: PEPTIDE (1)...(131) wild-type rat intestinal fatty acid binding protein
# B23: 72E 73V 74A (protein, listed as Rattus norvegicus)
# chain: B1 chain with I18M, V31G, A72E, G73V, D74A
# modifications: PEPTIDE (1)...(131) wild-type rat intestinal fatty acid binding protein
# B24: 72A 73P 74E (protein, listed as Rattus norvegicus)
# chain: B1 chain with I18M, V31G, G73P, D74E
# modifications: PEPTIDE (1)...(131) wild-type rat intestinal fatty acid binding protein
# B25: 38Y, 72A (protein, listed as Rattus norvegicus)
# chain: B1 chain with I18M, V31G, L38Y, G73A
# modifications: PEPTIDE (1)...(131) wild-type rat intestinal fatty acid binding protein
# B26: 18I 31M 55M 72A (protein, listed as Rattus norvegicus)
# chain: B1 chain with V31M, F55M, G73A
# modifications: PEPTIDE (1)...(131) wild-type rat intestinal fatty acid binding protein
# B27: 18V 31A 55I 72A (protein, listed as Rattus norvegicus)
# chain: B1 chain with I18V, V31A, F55I, G73A
# modifications: PEPTIDE (1)...(131) wild-type rat intestinal fatty acid binding protein
# B28: 14M 18L 31W 73I 117G 72A (protein, listed as Rattus norvegicus)
# chain: B1 chain with Y14M, I18L, V31W, G73I, Y117G
# modifications: PEPTIDE (1)...(131) wild-type rat intestinal fatty acid binding protein
# B29: 72T 73I 74A (protein, listed as Rattus norvegicus)
# chain: B1 chain with I18M, V31G, A72T, G73I, D74A
# modifications: PEPTIDE (1)...(131) wild-type rat intestinal fatty acid binding protein
# B30: 72S 74A (protein, listed as Rattus norvegicus)
# chain: B1 chain with I18M, V31G, A72S, G73A, D74A
# modifications: PEPTIDE (1)...(131) wild-type rat intestinal fatty acid binding protein
# B31: 72S 73V 74A (protein, listed as Rattus norvegicus)
# chain: B1 chain with I18M, V31G, A72S, G73V, D74A
# modifications: PEPTIDE (1)...(131) wild-type rat intestinal fatty acid binding protein
# B32: 72T 73G 74I (protein, listed as Rattus norvegicus)
# chain: B1 chain with I18M, V31G, A72T, D74I
# modifications: PEPTIDE (1)...(131) wild-type rat intestinal fatty acid binding protein
# B33: 18I 31F 72A (protein, listed as Rattus norvegicus)
# chain: B1 chain with V31F, G73A
# modifications: PEPTIDE (1)...(131) wild-type rat intestinal fatty acid binding protein
# Test: Baseline fluorescence ratio Ro of probe in absence of analyte
# Settings: baseline fluorescence ratio of probe
row,Molecule,Ro
1,B1,0.360
2,B2,0.554
3,B3,0.344
4,B4,0.391
5,B5,0.229
6,B6,0.299
7,B7,0.318
8,B8,0.321
9,B9,0.300
10,B10,0.181
11,B11,0.328
12,B12,0.259
13,B13,0.295
14,B14,0.265
15,B15,0.314
16,B16,0.230
17,B17,0.276

row,Molecule,Ro
1,B18,0.513
2,B19,0.303
3,B20,0.362
4,B21,0.251
5,B22,0.350
6,B23,0.296
7,B24,0.199
8,B25,0.213
9,B26,0.352
10,B27,0.345
11,B28,0.580
12,B29,0.293
13,B30,0.208
14,B31,0.340
15,B32,0.311
16,B33,0.314

# Same assay, conditions: baseline fluorescence ratio of probe, no fatty acid
row,Molecule,Ro
1,B2,0.554
2,B5,0.229
3,B6,0.299
4,B8,0.321
5,B9,0.300
6,B10,0.181
7,B11,0.328
8,B12,0.259
9,B16,0.230
10,B17,0.276
11,B18,0.513
12,B21,0.251
13,B22,0.350
14,B23,0.296
15,B28,0.580
16,B30,0.208
17,B31,0.340

# Substitutions are numbered along the chain they refer to.
